Measured values published in PMC6764944.
These are yes or no findings as the source states them, for the method shown. Binding seen in cells or lysates may run through a third protein. Some results given as binding are weak or reduced against the parent protein; the word gives no strength. Tags and fused reporters may be left off the sequences shown.

By UniProt entry, the sequences of proteins in these tests, tags left out.
UniProt P14713: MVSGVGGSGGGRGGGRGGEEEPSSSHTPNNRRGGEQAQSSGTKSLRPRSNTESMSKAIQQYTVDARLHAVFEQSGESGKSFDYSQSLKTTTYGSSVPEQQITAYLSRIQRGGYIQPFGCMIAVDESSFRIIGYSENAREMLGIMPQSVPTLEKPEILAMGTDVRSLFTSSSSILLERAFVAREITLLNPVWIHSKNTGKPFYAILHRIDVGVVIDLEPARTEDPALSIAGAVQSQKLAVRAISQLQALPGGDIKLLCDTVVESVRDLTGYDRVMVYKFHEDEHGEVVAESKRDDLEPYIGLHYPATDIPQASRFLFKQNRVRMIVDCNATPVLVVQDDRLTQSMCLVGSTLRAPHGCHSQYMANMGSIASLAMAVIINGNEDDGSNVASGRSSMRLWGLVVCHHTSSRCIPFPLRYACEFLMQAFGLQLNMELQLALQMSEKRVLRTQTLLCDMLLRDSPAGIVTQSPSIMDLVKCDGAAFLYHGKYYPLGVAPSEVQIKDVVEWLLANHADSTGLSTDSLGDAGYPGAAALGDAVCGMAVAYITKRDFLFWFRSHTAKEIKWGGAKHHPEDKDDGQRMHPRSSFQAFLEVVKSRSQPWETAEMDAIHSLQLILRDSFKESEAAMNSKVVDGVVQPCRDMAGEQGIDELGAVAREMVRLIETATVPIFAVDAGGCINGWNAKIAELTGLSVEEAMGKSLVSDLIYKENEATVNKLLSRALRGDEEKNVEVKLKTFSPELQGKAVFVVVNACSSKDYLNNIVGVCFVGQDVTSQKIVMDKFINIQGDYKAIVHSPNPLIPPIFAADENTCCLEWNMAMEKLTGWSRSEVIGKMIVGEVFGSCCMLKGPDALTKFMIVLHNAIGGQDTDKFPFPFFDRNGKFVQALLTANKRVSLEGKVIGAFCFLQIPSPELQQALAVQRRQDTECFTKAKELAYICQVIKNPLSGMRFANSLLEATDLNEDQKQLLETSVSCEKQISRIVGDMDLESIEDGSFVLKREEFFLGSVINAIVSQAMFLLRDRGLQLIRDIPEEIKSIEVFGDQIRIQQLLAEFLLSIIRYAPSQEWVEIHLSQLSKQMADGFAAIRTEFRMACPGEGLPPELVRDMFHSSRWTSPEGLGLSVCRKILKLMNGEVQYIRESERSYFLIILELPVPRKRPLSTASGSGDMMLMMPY

Target: T1, PIF5-HA (PHYTOCHROME … FACTOR 5 with HA tag, expressed from 35S:PIF5-HA) (Arabidopsis) (UniProt Q84LH8)
T1 sequence: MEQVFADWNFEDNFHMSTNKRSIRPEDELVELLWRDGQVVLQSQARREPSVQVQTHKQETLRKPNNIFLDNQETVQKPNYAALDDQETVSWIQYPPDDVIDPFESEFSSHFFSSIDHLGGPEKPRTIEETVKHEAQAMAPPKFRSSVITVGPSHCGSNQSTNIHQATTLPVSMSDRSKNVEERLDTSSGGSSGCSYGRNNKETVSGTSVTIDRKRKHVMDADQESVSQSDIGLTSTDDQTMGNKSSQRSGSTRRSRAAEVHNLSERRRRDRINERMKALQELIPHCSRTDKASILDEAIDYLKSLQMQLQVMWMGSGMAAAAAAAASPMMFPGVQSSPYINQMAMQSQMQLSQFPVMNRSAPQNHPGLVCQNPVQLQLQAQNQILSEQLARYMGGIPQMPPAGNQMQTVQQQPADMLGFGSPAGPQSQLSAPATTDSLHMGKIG
Experiment: co-IP; PIF5-HA precipitated with anti-HA magnetic beads (µMACS) from 4 mg total protein extract of 10-day-old light-grown seedlings (LerPIF5Ox, uvr8-1PIF5Ox) transferred at dawn to high R:FR ± UV-B for 1 h; 50 mM Tris-HCl pH 8, 150 mM NaCl, 0.5% Nonidet P-40, 0.05% sodium deoxycholate; 3 h in cold room; immunoblots of eluates

Phytochrome B (PHYB) (from UniProt P14713 1-1172)
binding: binds

B1: UV … LOCUS 8 (UVR8) (protein, UniProt Q9FN03 1-440)
chain: MAEDMAADEVTAPPRKVLIISAGASHSVALLSGDIVCSWGRGEDGQLGHGDAEDRPSPTQLSALDGHQIVSVTCGADHTVAYSQSGMEVYSWGWGDFGRLGHGNSSDLFTPLPIKALHGIRIKQIACGDSHCLAVTMEGEVQSWGRNQNGQLGLGDTEDSLVPQKIQAFEGIRIKMVAAGAEHTAAVTEDGDLYGWGWGRYGNLGLGDRTDRLVPERVTSTGGEKMSMVACGWRHTISVSYSGALYTYGWSKYGQLGHGDLEDHLIPHKLEALSNSFISQISGGWRHTMALTSDGKLYGWGWNKFGQVGVGNNLDQCSPVQVRFPDDQKVVQVSCGWRHTLAVTERNNVFAWGRGTNGQLGIGESVDRNFPKIIEALSVDGASGQHIESSNIDPSSGKSWVSPAERYAVVPDETGLTDGSSKGNGGDISVPQTDVKRVRI
binding: no binding
